Source: paper doi:10.1101/671156
Read-outs that look alike come from different tables or passages of the source. Results are given in words; binding and its absence hold for the method and conditions named. In cells and extracts the contact can be indirect. Some results given as binding are weak or reduced against the parent protein; the word gives no strength. For some of these results: Tags and fused reporters may be left off the sequences shown.

T1: GST-YxxQ (307-545), recombinant CoAA YxxQ repeats (human) (UniProt Q96PK6)
T1 sequence: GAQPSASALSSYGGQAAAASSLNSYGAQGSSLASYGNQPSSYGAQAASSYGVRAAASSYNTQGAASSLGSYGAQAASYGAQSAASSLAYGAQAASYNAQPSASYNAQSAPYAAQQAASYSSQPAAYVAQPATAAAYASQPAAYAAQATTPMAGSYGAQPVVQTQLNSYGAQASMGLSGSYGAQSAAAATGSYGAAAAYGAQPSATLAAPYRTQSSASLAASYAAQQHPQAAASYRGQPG

T2: CoAA (coactivator activator, gene symbol RBM14) (human (endogenous in HeLa)) (UniProt Q96PK6)
T2 sequence: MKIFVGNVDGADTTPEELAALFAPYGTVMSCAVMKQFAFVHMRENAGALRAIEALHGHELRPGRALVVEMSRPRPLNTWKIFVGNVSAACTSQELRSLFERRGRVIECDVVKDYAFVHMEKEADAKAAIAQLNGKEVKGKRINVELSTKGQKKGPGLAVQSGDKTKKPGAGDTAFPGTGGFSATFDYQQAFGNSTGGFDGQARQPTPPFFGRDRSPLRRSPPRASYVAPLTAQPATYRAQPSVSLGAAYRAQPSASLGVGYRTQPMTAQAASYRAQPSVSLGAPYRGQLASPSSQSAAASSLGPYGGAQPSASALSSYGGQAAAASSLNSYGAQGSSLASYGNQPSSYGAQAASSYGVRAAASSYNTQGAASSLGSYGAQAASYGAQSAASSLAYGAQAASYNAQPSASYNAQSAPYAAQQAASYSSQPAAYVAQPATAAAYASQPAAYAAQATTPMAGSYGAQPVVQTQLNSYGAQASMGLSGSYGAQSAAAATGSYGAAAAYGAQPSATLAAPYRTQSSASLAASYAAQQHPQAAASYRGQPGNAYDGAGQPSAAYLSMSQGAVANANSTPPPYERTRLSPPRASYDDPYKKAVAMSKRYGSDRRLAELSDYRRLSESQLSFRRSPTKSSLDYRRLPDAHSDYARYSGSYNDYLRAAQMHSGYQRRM


What was measured:
[1] = biological target: T1, GST-YxxQ (307-545), recombinant CoAA YxxQ repeats (human); assay: pull-down
[2] = biological target: T2, CoAA (coactivator activator, gene symbol RBM14) (human (endogenous in HeLa)); assay: co-IP
[3] = biological target: T2, CoAA (coactivator activator, gene symbol RBM14) (human (endogenous in HeLa)); assay: co-IP; remark: listed apart in the source

Binder	binding [1]	binding [2]	binding [3]
heterogeneous ribonucleoprotein hnRNP M (protein, UniProt P52272 1-730) MAAGVEAAAEVAATEIKMEEESGAPGVPSGNGAPGPKGEGERPAQNEKRKEKNIKRGGNRFEPYANPTKRYRAFITNIPFDVKWQSLKDLVKEKVGEVTYVELLMDAEGKSRGCAVVEFKMEESMKKAAEVLNKHSLSGRPLKVKEDPDGEHARRAMQKVMATTGGMGMGPGGPGMITIPPSILNNPNIPNEIIHALQAGRLGSTVFVANLDYKVGWKKLKEVFSMAGVVVRADILEDKDGKSRGIGTVTFEQSIEAVQAISMFNGQLLFDRPMHVKMDERALPKGDFFPPERPQQLPHGLGGIGMGLGPGGQPIDANHLNKGIGMGNIGPAGMGMEGIGFGINKMGGMEGPFGGGMENMGRFGSGMNMGRINEILSNALKRGEIIAKQGGGGGGGSVPGIERMGPGIDRLGGAGMERMGAGLGHGMDRVGSEIERMGLVMDRMGSVERMGSGIERMGPLGLDHMASSIERMGQTMERIGSGVERMGAGMGFGLERMAAPIDRVGQTIERMGSGVERMGPAIERMGLSMERMVPAGMGAGLERMGPVMDRMATGLERMGANNLERMGLERMGANSLERMGLERMGANSLERMGPAMGPALGAGIERMGLAMGGGGGASFDRAIEMERGNFGGSFAGSFGGAGGHAPGVARKACQIFVRNLPFDFTWKMLKDKFNECGHVLYADIKMENGKSKGCGVVKFESPEVAERACRMMNGMKLSGREIDVRIDRNA	binds	binds	binds
hnRNP M1 (alternatively spliced isoform of hnRNP M) (protein, UniProt P52272-2 1-691) MAAGVEAAAEVAATEIKMEEESGAPGVPSGNGAPGPKGEGERPAQNEKRKEKNIKRGGNRFEPYANPTKRYRAFITNIPFDVKWQSLKDLVKEKVGEVTYVELLMDAEGKSRGCAVVEFKMEESMKKAAEVLNKHSLSGRPLKVKEDPDGEHARRAMQKAGRLGSTVFVANLDYKVGWKKLKEVFSMAGVVVRADILEDKDGKSRGIGTVTFEQSIEAVQAISMFNGQLLFDRPMHVKMDERALPKGDFFPPERPQQLPHGLGGIGMGLGPGGQPIDANHLNKGIGMGNIGPAGMGMEGIGFGINKMGGMEGPFGGGMENMGRFGSGMNMGRINEILSNALKRGEIIAKQGGGGGGGSVPGIERMGPGIDRLGGAGMERMGAGLGHGMDRVGSEIERMGLVMDRMGSVERMGSGIERMGPLGLDHMASSIERMGQTMERIGSGVERMGAGMGFGLERMAAPIDRVGQTIERMGSGVERMGPAIERMGLSMERMVPAGMGAGLERMGPVMDRMATGLERMGANNLERMGLERMGANSLERMGLERMGANSLERMGPAMGPALGAGIERMGLAMGGGGGASFDRAIEMERGNFGGSFAGSFGGAGGHAPGVARKACQIFVRNLPFDFTWKMLKDKFNECGHVLYADIKMENGKSKGCGVVKFESPEVAERACRMMNGMKLSGREIDVRIDRNA	binds		
